Assay results as given in PubChem BioAssay AID926 (National Center for Advancing Translational Sciences (NCATS), 2007).
The list shows a part of the results.

Assay: qHTS Assay for Agonists of the Thyroid Stimulating Hormone Receptor;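 also: the control signal comes from parental cells without the receptor; % of control where 0% means no effect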
Settings: HEK293-CNG-TSHR cells (CNG channel as cAMP sensor), membrane potential dye, cAMP; measured here: parental cells max response

Row | Compound | activation [%]
1 | O=C(OC1CN2CCC1CC2)c1cccc(Cl)c1 (stereo not drawn) | 7.11
2 | Cc1nn(-c2ccccc2)c2c1P(=O)(N1CCOCC1)N(C)C(c1ccccc1)=N2 (stereo not drawn) | -0.719
3 | CN(CCCl)Cc1cc(Cl)c(NC2=NCCN2)c(Cl)c1 | -3.35
